Test results: the supplement of paper PMC5949888
Most values lie at the floor of the assay. Slopes are relative: functional sequences can read slightly below zero.

What follows are substances tested on Saccharomyces cerevisiae PS128 hsf1 delta, HSF1(1-493) fusion (assay: growth estimate (transactivation domain function in HSF1 fusion, heat-shock survival) (a.u. (slope of normalised read count over time)); higher = stronger growth at 37°C, i.e. more transactivation activity). Conditions: library: random library.

| Substance | growth estimate |
| --- | --- |
| KVTGLHVSTEDRKHTKRYIS | < -0.25 |
| KVTLALRHLTVL | < -0.25 |
| KVVELEDEWPRVKPG | < -0.25 |
| KVVSFGGGVGV | < -0.25 |
| KVVSSRPSIDSTLMFRTI | < -0.25 |
| KVYHRMITSFLC | < -0.25 |
| KWCFMEIWSREPNLRGEPGP | < -0.25 |
| KWGHHANNNPRPDPDRAKCL | < -0.25 |
| KWHGWILRTSDGPC | < -0.25 |
| KWMLHTGAWFFTYLLNER | < -0.25 |
| KWMLRSIATVIKATSTRLPL | < -0.25 |
| KWSS | < -0.25 |
| KYDFM | < -0.25 |
| KYESGPVKRT | < -0.25 |
| KYGSTRLFAGTI | < -0.25 |
| KYI | < -0.25 |
| KYPSPVVENILCVLPQHLVD | < -0.25 |
| KYVGVGGPGEETADSGVRFF | -0.243 |
| LAAGE | < -0.25 |
| LAAISLCTGSHGVRPESRTL | < -0.25 |
| LAARVPAGVYVEDQHTFKKG | < -0.25 |
| LAAS | < -0.25 |
| LACSGTYKPLGEEWKDPLPS | < -0.25 |
| LACSKNARVCVVV | < -0.25 |

| Substance | growth estimate |
| --- | --- |
| LADGLLEG | < -0.25 |
| LADL | < -0.25 |
| LADVRPTSSLSVRSLPASRH | < -0.25 |
| LAEAHNSVQGLPQRSAPSPA | < -0.25 |
| LAEDPKAQRICGPTRHLSV | < -0.25 |
| LAFDPLQGGFSKFGICSR | < -0.25 |
| LAFSENYGHSRSANCVEAGI | < -0.25 |
| LAFVFFLSGVGGSGEGVLWV | < -0.25 |
| LAGAGLRRRRLMPRQRHDIN | < -0.25 |
| LAGFQQ | < -0.25 |
| LAGHVFNPRPMTYATDYCCS | < -0.25 |
| LAGIWLIGVGDPGPVGETKD | < -0.25 |
| LAIAESLFRFKRQGPLCSRT | < -0.25 |
| LAIFWVMSQSPE | < -0.25 |
| LAIQ | < -0.25 |
| LAITKGGAVQRYRTMVLVSV | < -0.25 |
| LALCGKRLWRNIRAPCDGSI | 0.0091 |
| LALDRLSWRLLLFVLSLAVP | < -0.25 |
| LALLERLERMVNAIGTIGTD | -0.229 |
| LALLWVVSVI | < -0.25 |
| LALNFIFAGKRLAIRGLQTV | < -0.25 |
| LALRIIWAIRFARDSGLHRL | < -0.25 |
| LALTPFYAIV | < -0.25 |
| LANDRRC | < -0.25 |

| Substance | growth estimate |
| --- | --- |
| LAPSMETASFGDMEQGSRAL | < -0.25 |
| LAQVTPAA | < -0.25 |
| LARGEMVCL | < -0.25 |
| LARGET | 0.0789 |
| LARGRAIIRQSYSSPLAR | < -0.25 |
| LARICGSTNSWGVESMTGIH | < -0.25 |
| LARY | < -0.25 |
| LASERSSWAQWKLRNSDCNG | < -0.25 |
| LASLRLPFCVHRTVTTRTAT | < -0.25 |
| LASTV | < -0.25 |
| LASVP | < -0.25 |
| LASYEIFIRKHLNGHYRCVR | < -0.25 |
| LAT | < -0.25 |
| LATPADATQKPCILVYVNEG | < -0.25 |
| LATVRGLGLKDRTNVPHVGI | < -0.25 |
| LAVFDCRGSVTSKFF | < -0.25 |
| LAVFPEDVQDP | < -0.25 |
| LAVM | < -0.25 |
| LAWGSTTP | < -0.25 |
| LAWPPVLTPPSSRDALQPVW | < -0.25 |
| LAWRTRAL | < -0.25 |
| LCCERLQGA | < -0.25 |
| LCCIGGLGIMGLSVGRSPIR | < -0.25 |
| LCCTERFVVNRQSP | < -0.25 |

| Substance | growth estimate |
| --- | --- |
| LCDQRAGGFRECCF | -0.246 |
| LCELVPPGTPCQSSKLGCHT | < -0.25 |
| LCESGAGYNDEP | < -0.25 |
| LCETAVTGVKHRLGDIVLES | < -0.25 |
| LCEVGSHG | -0.243 |
| LCEWGSL | 0.532 |
| LCGDTCETRTASTRLK | < -0.25 |
| LCGSWVVRGRTVSCVSRSFR | < -0.25 |
| LCHLRRKCNFGCLHRYDFFS | < -0.25 |
| LCL | < -0.25 |
| LCLGLCVVGGLTLRCSTGML | < -0.25 |
| LCLQMEEV | -0.243 |
| LCLRRLRSPVHSQYFKEPLR | -0.246 |
| LCLVADRSWRMESGTPRTRY | < -0.25 |
| LCNLIRHCVSWFKSCLTSRL | < -0.25 |
| LCNVVCRKYARMLVLASRLN | < -0.25 |
| LCPQNFGNVVASTDPCSQLW | -0.112 |
| LCPTGQQYIFNPHY | < -0.25 |
| LCQTYAIASLHSAASGLY | < -0.25 |
| LCRACVCSVATLYYWGHHLD | < -0.25 |
| LCRCVVCCTFTRALSTSSQM | < -0.25 |
| LCRGWRNVNASGASIPVKLQ | < -0.25 |
| LCRIGTNGRVVPHRGTVSGL | < -0.25 |
| LCRPVLENNARAHGA | < -0.25 |

| Substance | growth estimate |
| --- | --- |
| LCSFFTHFAHRPFTAGRK | < -0.25 |
| LCSLGFALRLGYILSL | < -0.25 |
| LCSLVRVCSRY | < -0.25 |
| LCTANQSNEVG | < -0.25 |
| LCTKCKILGSTRFIPRSVWS | < -0.25 |
| LCVEYDRRQAGFGLDLRPQG | < -0.25 |
| LCVSDIQMGDSPELEA | < -0.25 |
| LCYPGSCGAGRTPCSAPISY | < -0.25 |
| LDA | < -0.25 |
| LDDAFSAYRSRGPG | < -0.25 |
| LDDAGQVPPRHHLGYSELAP | < -0.25 |
| LDDLAGVT | < -0.25 |
| LDDVEGPRVQHSET | < -0.25 |
| LDDVPDFQMSGSSGTHCIDT | < -0.25 |
| LDEKFIDPG | < -0.25 |
| LDGP | < -0.25 |
| LDHFFVLPSSQSKLG | < -0.25 |
| LDHRKQRDANLVGVWSSNHQ | 0.0071 |
| LDKTDE | < -0.25 |
| LDKVDAHRPSSVIVPPVKRN | < -0.25 |
| LDLASGDGLEFSVLWFRAKP | < -0.25 |
| LDLIQFDEAVCLGTIEVNML | < -0.25 |
| LDLLVCPSLTAFTKIPG | < -0.25 |
| LDM | < -0.25 |

Part of the list above, reformatted:
Substance,growth estimate
LDDVEGPRVQHSET,< -0.25
LDHFFVLPSSQSKLG,< -0.25
LDHRKQRDANLVGVWSSNHQ,0.0071

2 consecutive entries from above, quoted:

| Substance | growth estimate |
| --- | --- |
| LAGAGLRRRRLMPRQRHDIN | < -0.25 |
| LAGFQQ | < -0.25 |

Next results:

| Substance | growth estimate |
| --- | --- |
| LDNGPWRTKFQEPSSTVSAL | < -0.25 |
| LDNPTSTQWAFSTDEGVQRW | -0.152 |
| LDPLAW | < -0.25 |
| LDPSRSI | < -0.25 |
| LDPTQWPYGTGIHGRNSIKF | < -0.25 |
| LDQTINSVCIDR | < -0.25 |
| LDRLE | -0.13 |
| LDRPERGASSVNVPQTQNRT | < -0.25 |
| LDRPPCLISWPPGCTLPNIA | < -0.25 |
| LDRQTEGLSFTC | < -0.25 |
| LDSI | < -0.25 |
| LDTGIGGRIPFSQ | < -0.25 |
| LDTHRRRREVRLDFVRVLSQ | < -0.25 |
| LDTSSRKYGRRLANARGLAI | < -0.25 |
| LDTTPLRAPVCHGMDPVCYG | < -0.25 |
| LDVGSLCRLTAVRLWRTKPD | < -0.25 |
| LDWDCGRTVGRLGPPSSDLS | < -0.25 |
| LEAVVGLDVQRDFKTNRLPT | -0.243 |
| LECWRDGWVVARRRKPYQVN | < -0.25 |
| LEDSISTSMSVVRIIGAAT | < -0.25 |
| LEEHGTLSDYVE | < -0.25 |
| LEGFKFALERAFDLRRRPMQ | < -0.25 |
| LEGFPSTPGPSIADTMESPR | < -0.25 |
